Data reported in PubChem BioAssay AID493014 (National Center for Advancing Translational Sciences (NCATS), 2011).
The campaign covered roughly 340,000 compounds. About 170 (0.05%) were called active. This list was built around the results that the source calls inconclusive (neither active nor inactive); the mix of calls is not that of the screen. Calls come from the whole dose curve; as a rule, active = well fitted inhibition curve with a large enough effect in the signal ratio, with a control signal flat (not every such curve was filed as active); inconclusive = small, poorly fitted or top-dose-only effect, or effect the other way, or a change in a side signal; inactive = flat fitted curve, though single readings scatter; the % refers to the signal ratio. Potencies of inconclusive entries are doubtful fits and often do not repeat.

Assay: qHTS Assay to Find Inhibitors of Chronic Active B-Cell Receptor Signaling;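 for activity change, negative = inhibition: plate controls were basal doxycycline-induced cells for no effect and cells given 10 µM MG132 for full effect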
Details: ABC-DLBCL IkBa-CBG/CBR reporter, luminescence ratio (green luciferase fused to IkBa over red control in TMD8 lymphoma cells), 4 h; activity change, negative = inhibition: at 46.1 µM (top of the series)
Summary of the method: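 Doxycycline induced both beetle luciferases in TMD8 lymphoma cells; IKK-driven degradation limits the IkappaBalpha-fused green signal, while red luminescence normalises for cell number and nonspecific effects. Compounds tested up to 46 uM, 4 hrs.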
Potency is the fitted concentration of half-maximal effect.

Row | Structure (SMILES) | activity change, negative = inhibition | Potency
1 | CCOC(=O)Nc1ccc2c(c1)N(C(=O)CCN1CCOCC1)c1ccccc1S2=O (stereo not drawn) | inconclusive: 8.89% | 
2 | Cn1c(=O)c2c(nc(Sc3ccccc3N)n2C)n(C)c1=O |  | inconclusive: 3.98 µM [rising, partial curve]
3 | COc1ccc(CCN(Cc2cc3cc(C)cc(C)c3nc2Cl)C(=O)C2CC2)cc1 | inactive: 12.1% | 
4 | O=C(/C=C/c1ccccc1)Nc1ncn[nH]1 | inconclusive: -21.1% | 
5 | O=C(CSc1ccc([N+](=O)[O-])cn1)Nc1ccc2c(c1)OCO2 | inactive: -20.8% | 
6 | Cc1nc2ccc(NC(=O)COc3cccc(F)c3)cc2s1 |  | inconclusive: 2.51 µM [rising, full curve, poor fit]
7 | CC(=O)Nc1ccc(SCC(=O)O)cc1 | inconclusive: 3.77% | 
8 | CCOC(=O)Cc1c(C)nc2c(-c3ccc(Cl)cc3)c[nH]n2c1=O | inconclusive: 1.35% | 
9 | COCCNC(=O)c1c(N)n(/N=C/c2ccc(F)cc2)c2nc3ccccc3nc12 |  | inconclusive: 0.447 µM [rising, full curve]
10 | CCCOc1ccc(/C=N/Nc2ccc(C(=O)O)cc2)c(OCCC)c1 | inconclusive: 338% | 
11 | CCOC(=O)Cn1c(=O)oc2cc(S(=O)(=O)N(C)Cc3ccco3)ccc21 |  | inconclusive: 2.59 µM [rising, single point]
12 | O=C(/C=C/c1cccc([N+](=O)[O-])c1)n1cnc2ccccc21 | inconclusive: -2.04% | 
13 | CSc1nc2ccc(S(=O)(=O)Nc3c(C)n(C)n(-c4ccccc4)c3=O)cc2s1 | inconclusive: 10.3% | 
14 | O=C(Nc1nc(-c2ccc(S(=O)(=O)N3CCCC3)cc2)cs1)C1COc2ccccc2O1 (stereo not drawn) |  | inconclusive: 5.17 µM [rising, partial curve, poor fit]
15 | CCc1ccc2c(c1)c1nnc(NN)nc1n2C | inconclusive: -14.6% | 
16 | CCCCN(C(=O)c1ccc(NC2CC2)c([N+](=O)[O-])c1)c1c(N)n(CC(C)C)c(=O)[nH]c1=O | inactive: 1.17% | 
17 | CCOC(=O)Nc1ccc2c(c1)N(C(=O)CCCl)c1ccccc1[S@]2=O | inconclusive: 4.86% | 
18 | Cc1nc(SCC(=O)NCC2CCCO2)nc(C)c1C (stereo not drawn) | inconclusive: 0.0159% | 
19 | O=C(c1cc2cc(C(F)(F)F)ccc2s1)N1CCOCC1 |  | inconclusive: 35.5 µM [falling, single point]
20 | CS(=O)(=O)c1cc([N+](=O)[O-])c(Sc2nc3ccccc3[nH]2)c([N+](=O)[O-])c1 |  | inconclusive: 18.4 µM [rising, partial curve, poor fit]
21 | COc1ccc(C)cc1NC(=O)CSc1ccc(-c2sc(C)nc2C)nn1 | inactive: 1.81% | 

Row | Structure (SMILES) | activity change, negative = inhibition | Potency
22 | COc1ccc(CCn2c(-c3ccncc3)n[nH]c2=S)cc1OC | inconclusive: 5.19% | 
23 | CSc1ccccc1NC(=O)CN1c2ccccc2CC1C (stereo not drawn) | inactive: -0.796% | 
24 | O=C(Nc1ccc(S(=O)(=O)Nc2nccs2)cc1)C1=NN(c2ccccc2)C(=O)CC1 | inconclusive: -0.561% | 
25 | COCC(=O)N(Cc1cc2cccc(C)c2[nH]c1=O)c1ccccc1 | inactive: 3.77% | 
26 | O=C(Nc1nc(-c2ccc(F)c(F)c2)cs1)C1=COCCO1 | inconclusive: 7.23% | 
27 | O=C(NC1CC(=O)N(c2ccc(Cl)cc2)C1)C(=O)c1c[nH]c2ccccc12 (stereo not drawn) | inactive: -0.832% | 
28 | CCOc1ccc(NC(=O)COc2ccc(C(=O)NCC3CCCO3)cc2OC)cc1 (stereo not drawn) | inactive: -0.646% | 
29 | c1ccc(CCSc2ncnc3nc[nH]c23)cc1 | inconclusive: -10.8% | 
30 | CC1CCCC(C)N1CCCNC(=O)c1ccc2nc(N3CCCCC3)sc2c1 (stereo not drawn) | inactive: 12.3% | 
31 | CCC(Oc1ccc(C)c(C)c1)C(=O)N1CCCN(C)CC1 (stereo not drawn) | inactive: 5.66% | 
32 | Cc1cc(C)n(-c2nc(NCCN(C)C)c3c4c(sc3n2)CCCC4)n1 |  | inconclusive: 35.5 µM [falling, single point]
33 | CCOC(=O)CNC(=O)Cn1cnc2c(oc3ccccc32)c1=O | inactive: -3.26% | 
34 | C/C(=N\NC(=O)c1ccccc1F)c1cccc(NC(=O)c2ccc(C)cc2)c1 | inconclusive: 1.1% | 
35 | Cc1cc(NC(=O)c2cc(-c3ccco3)on2)no1 | inconclusive: -7.08% | 
36 | CCN(CC)C(=O)C1CCN(Cc2cn(C)nc2-c2ccc(Oc3ccccc3)cc2)CC1 | inconclusive: 8.37% | 
37 | CCOC(=O)c1sc(SC)c2c1CCCC2=O | inactive: -20.5% | 
38 | Cc1ccc(NC(=S)N2CCN(Cc3ccccc3)CC2)cc1 | inactive: -20% | 
39 | CCn1c(=N)n(CC(=O)c2cccc([N+](=O)[O-])c2)c2ccccc21 | inconclusive: 4.61% | 
40 | COC(=O)[C@@]1(Cc2ccc(F)cc2)[C@H]2c3cc(C(=O)N4CCCC4)n(CCCNc4ncc(C(F)(F)F)cc4Cl)c3C[C@H]2CN1C(=O)c1ccccc1 | inconclusive: -9.64% | 
41 | O=C1N=C(C=c2ccc(=Cc3[nH]c(=O)[nH]c3O)cc2)C(=O)N1 | inactive: -1.73% | 
42 | Cn1c(O)c(N=Nc2ccc(F)cc2)c2ccccc21 | inactive: 0.469% | 

Nothing new here: three of the compounds above.
Row | Structure (SMILES) | activity change, negative = inhibition | Potency
14 | O=C(Nc1nc(-c2ccc(S(=O)(=O)N3CCCC3)cc2)cs1)C1COc2ccccc2O1 (stereo not drawn) |  | inconclusive: 5.17 µM [rising, partial curve, poor fit]
15 | CCc1ccc2c(c1)c1nnc(NN)nc1n2C | inconclusive: -14.6% | 
16 | CCCCN(C(=O)c1ccc(NC2CC2)c([N+](=O)[O-])c1)c1c(N)n(CC(C)C)c(=O)[nH]c1=O | inactive: 1.17% | 

Remaining list, next part

Row | Structure (SMILES) | activity change, negative = inhibition | Potency
43 | Cc1ccc(NC(=O)Cn2cccc2)c(Br)c1 | inconclusive: 8.44% | 
44 | CCOC(=O)c1sc(Nc2nc3c(F)cccc3s2)cc1C | inconclusive: 5.86% | 
45 | O=c1c2c3nc4ccccc4nc3n(Cc3ccccc3)c2ncn1Cc1ccco1 |  | inconclusive: 0.92 µM [rising, full curve, poor fit]
46 | COc1cccc(/C=N\NC(=O)C2=NNC(=O)C2C)c1O (stereo not drawn) |  | inconclusive: 5.17 µM [falling, partial curve]
47 | Cc1cc(S(=O)(=O)Nc2ccc(C(=O)NCC3(N4CCCCC4)CCCCC3)cc2)ccc1F | inconclusive: -0.309% | 
48 | CCCCCn1c(CN2CCN(c3cccc(Cl)c3)CC2)nc2c1c(=O)n(C)c(=O)n2C | inactive: 1.6% | 
49 | CCCCOc1ccc(C(=O)OC2CC(C)N(C)CC2C)cc1 (stereo not drawn) | inconclusive: 9.83% | 
50 | CCCOc1ccc(C(=O)CCNC(Cc2c[nH]c3ccccc23)C(=O)O)cc1 (stereo not drawn) | inconclusive: -0.884% | 
51 | CN1CCc2c(n(CC(O)CN3C(=O)c4ccccc4S3(=O)=O)c3ccccc23)C1=O (stereo not drawn) | inconclusive: 2.01% | 
52 | C=C(C)CNC(=S)NNC(=O)c1ccc(Br)cc1 |  | inconclusive: 18.4 µM [falling, partial curve]
53 | CC(C)(C)c1ccc(S(=O)(=O)Nc2ccc(Cc3ccncc3)cc2)cc1 | inconclusive: -13.2% | 
54 | COc1cc2c(cc1OC)C(c1ccc(C(F)(F)F)cc1)CC(=O)N2 (stereo not drawn) |  | inconclusive: 22.4 µM [falling, single point]
55 | Cc1n[nH]c(C)c1Sc1ccccc1N=Cc1cc([N+](=O)[O-])ccc1O | inconclusive: 20.8% | 
56 | CC1(C(=O)N/N=C/c2ccc3c(c2)OCO3)CC1(Br)Br (stereo not drawn) | inconclusive: -11.9% | 
57 | C[C@H](CO)N1C[C@H](C)[C@H](CN(C)S(=O)(=O)c2cccs2)Oc2ccc(NC(=O)Nc3ccc4c(c3)OCO4)cc2CC1=O | inconclusive: -4.51% | 
58 | O=C(Nc1nnc(-c2cccs2)o1)C1CC1 |  | inconclusive: 35.5 µM [falling, single point]
59 | Cn1nc(C(=O)OCC(=O)Nc2ccc(Cl)cc2Cl)c2ccccc2c1=O | inactive: 6.07% | 
60 | Cc1ccnc(NC(c2ccccn2)c2c(C)[nH]c3ccccc23)c1 (stereo not drawn) | inconclusive: -13.2% | 
61 | CCOc1cc2[nH]c(=S)n(CCOC)c(=O)c2cc1OCC |  | inconclusive: 0.58 µM [rising, full curve, poor fit]
62 | CSc1nc2nc3c(c(=O)n2[nH]1)CCC3 | inconclusive: -8.89% | 
63 | O=C(Nc1ccc(N2CCN(C(=O)c3ccco3)CC2)c(Cl)c1)c1cccs1 |  | inconclusive: 3.66 µM [falling, full curve]

Row | Structure (SMILES) | activity change, negative = inhibition | Potency
64 | Nc1ccc(C(=O)Nc2ccc(NC(=O)c3ccco3)c(O)c2)cc1 | inconclusive: 10.2% | 
65 | CCOC(=O)c1c(C)[nH]c(N=Nc2cccc(C)c2)c1C | inactive: 18.3% | 
66 | CCN1CCN(S(=O)(=O)c2ccc(S(=O)(=O)N(CC)Cc3ccccc3)cc2)CC1 | inactive: 5.89% | 
67 | Cc1cccc(NC(=O)c2ccc(S(=O)(=O)N3CCCCC3)cc2)n1 | inactive: 7.56% | 
68 | O=c1oc(-c2ccc(O)c(O)c2)cc2cccc(O)c12 | inconclusive: -12.5% | 
69 | O=C(c1nnc(-c2ccc(Cl)cc2)o1)C1CCCC1 | inconclusive: 1.09% | 
70 | O=C(Nc1c(C(=O)N2CCOCC2)cnn1-c1ccccc1)c1cccc(F)c1 | inactive: -1.52% | 
71 | O=C(Nc1nccs1)c1ccc(-c2ccccc2[N+](=O)[O-])o1 | inconclusive: -1.56% | 
72 | CCOc1ccc(S(=O)(=O)N2CCN(C)CC2)cc1NC(=O)c1ccccc1F | inactive: 1.88% | 
73 | O=C(CCC(=O)Nc1ccc(F)cc1)N/N=C/c1ccc(O)cc1 | inactive: -10.3% | 
74 | S=C(NCc1ccc(Cl)cc1)NC1CCN(Cc2ccccc2)CC1 | inconclusive: -15% | 
75 | C=C(Cl)COc1ccc2c(C)cc(=O)oc2c1 | inconclusive: 8.94% | 
76 | CN(C)S(=O)(=O)c1ccc(C(=O)N(Cc2cccnc2)c2nc3c(F)cc(F)cc3s2)cc1 |  | inconclusive: 11.2 µM [rising, partial curve, poor fit]
77 | CCN1C(=O)c2cccc3c(S(=O)(=O)Nc4c(C)n(C)n(-c5ccccc5)c4=O)ccc1c23 | inconclusive: 10.3% | 
78 | O=C(NCC1CCCO1)c1ccc(N2C(=O)C3CCCCC3C2=O)cc1 (stereo not drawn) | inconclusive: -1.97% | 
79 | COc1ccc(-n2c(Cc3cc(=O)[nH]c(=O)[nH]3)nnc2SCc2ccccc2)cc1 | inactive: -0.761% | 
80 | COCC(C)N1CCC(Oc2cccc(C(=O)NCCc3ccccc3)c2)CC1 (stereo not drawn) | inconclusive: -13.4% | 
81 | CCOC(=O)c1c(NC(=O)C(C)NCc2ccco2)sc2c1CCC(C)C2 (stereo not drawn) | inactive: 4.19% | 
82 | CC(C)Cn1c(=O)c2ccccc2n2c(CCC(=O)O)nnc12 | inactive: 7.7% | 
83 | Fc1ccc(CSc2nc3ncc(Br)cc3[nH]2)cc1 |  | inconclusive: 20.6 µM [falling, single point]
